Assay results from the supplement of paper PMC10331698.
± gives the standard deviation of the averaged measurements. Most values lie at the level of the controls, where differences are scatter.

Columns and labels:
Test in all cases: level (log10 ratio to DMSO vehicle control); higher = higher biomarker level / cell amount than vehicle control
Hexafluoroamylene glycol = compound: OCC(F)(F)C(F)(F)C(F)(F)CO [Hexafluoroamylene glycol]; settings: 2200 nM; in DMSO
Experimental: (§1)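 BioMAP Diversity Plus panel of 12 human primary cell co-culture systems (3C, 4H, LPS, SAg, BT, BF4T, BE3C, CASM3C, HDF3CGF, KF3CT, MyoF, Mphg). Compounds were added 1 h before stimulation and left for 24 h (MyoF 48 h; BT 72 h for soluble read-outs or 6 d for IgG). Biomarkers were read by ELISA, cytotoxicity by SRB, PBMC viability and proliferation by Alamar Blue. Each well value was divided by the mean of 8 DMSO control wells on the same plate and log10 transformed; duplicate blinded samples were tested at 4 concentrations.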

[1] = compound: O=C(Cl)C(F)(F)C(F)(F)C(F)(F)C(=O)Cl [Hexafluoroglutaryl chloride]; settings: 2200 nM; in DMSO
Experimental: as §1

[2] = compound: FC(F)(F)C(F)(C(F)(F)F)C(F)(F)C(F)(F)CC1CO1 [3-(Perfluoro-3-methylbutyl)-1,2-propenoxide]; settings: in DMSO
Experimental: as §1

[3] = compound: OCCCC(F)(F)C(F)(F)C(F)(F)C(F)(F)C(F)(F)C(F)(F)C(F)(F)F [7:3 Fluorotelomer alcohol]; settings: 2200 nM; in DMSO
Experimental: as §1

[4] = compound: O=S(=O)(O)CCC(F)(F)C(F)(F)C(F)(F)C(F)(F)F [4:2 Fluorotelomer sulfonic acid]; settings: 2200 nM; in DMSO
Experimental: as §1

[5] = compound: C=CC(=O)OCCC(F)(F)C(F)(F)C(F)(F)C(F)(F)C(F)(F)C(F)(F)C(F)(F)C(F)(F)F [8:2 Fluorotelomer acrylate]; settings: 2200 nM; in DMSO
Experimental: as §1

[6] = compound: C=CC(=O)OCC(F)(F)C(F)(F)C(F)(F)COC(=O)C=C [1H,1H,5H,5H-Perfluoro-1,5-pentanediol diacrylate]; settings: 2200 nM; in DMSO
Experimental: as §1

[7] = compound: O=C(O)C=C(C(F)(F)F)C(F)(F)F [3,3-Bis(trifluoromethyl)-2-propenoic acid]; settings: in DMSO
Experimental: as §1

Perfluoro-1-iodohexane = compound: FC(F)(F)C(F)(F)C(F)(F)C(F)(F)C(F)(F)C(F)(F)I [Perfluoro-1-iodohexane]; settings: in DMSO
Experimental: as §1

[8] = compound: FC(F)(I)C(F)(F)C(F)(F)C(F)(F)C(F)(F)C(F)(F)I [1,6-Diiodoperfluorohexane]; settings: 2200 nM; in DMSO
Experimental: as §1

[9] = compound: O=S(=O)(O)C(F)(F)C(F)(F)C(F)(F)C(F)(F)C(F)(F)C(F)(F)F [Perfluorohexanesulfonic acid]; settings: 2200 nM; in DMSO
Experimental: as §1

[10] = compound: C=CC(=O)OCCC(F)(F)C(F)(F)C(F)(F)C(F)(F)F [2-(Perfluorobutyl)ethyl acrylate]; settings: 2200 nM; in DMSO
Experimental: as §1

[11] = compound: O=C(O)C(F)(F)C(F)(F)C(F)(F)C(F)(F)C(F)(F)C(F)(F)C(F)(F)C(F)(F)C(F)(F)C(F)(F)C(F)(F)C(F)(F)C(F)(F)F [Perfluorotetradecanoic acid]; settings: in DMSO
Experimental: as §1

Row | Test System | level (log10) (Hexafluoroamylene glycol) | level (log10) [1] | level (log10) ([2]; 740 nM) | level (log10) ([2]; 2200 nM) | level (log10) [3] | level (log10) [4] | level (log10) [5] | level (log10) [6] | level (log10) ([7]; 2200 nM) | level (log10) ([7]; 6700 nM) | level (log10) ([7]; 20000 nM) | level (log10) ([7]; 60000 nM) | level (log10) (Perfluoro-1-iodohexane; 2200 nM) | level (log10) (Perfluoro-1-iodohexane; 6700 nM) | level (log10) (Perfluoro-1-iodohexane; 20000 nM) | level (log10) (Perfluoro-1-iodohexane; 60000 nM) | level (log10) [8] | level (log10) [9] | level (log10) [10] | level (log10) ([11]; 740 nM) | level (log10) ([11]; 2200 nM)
1 | BE3C:MMP-1 | -0.003 ± 0.0085 | 0.0065 ± 0.018 | 0.0125 ± 0.016 | 0.0275 ± 0.019 | 0.003 ± 0.0057 | -0.001 ± 0.0057 | 0.023 ± 0.058 | 0.009 ± 0.018 | -0.0035 ± 0.056 | -0.066 ± 0.0099 | -0.0425 ± 0.005 | 0.0305 ± 0.073 | -0.0075 ± 0.037 | -0.003 ± 0.0085 | -0.0065 ± 0.011 | 0.043 ± 0.016 | 0.0195 ± 0.07 | 0.016 ± 0.016 | 0.013 ± 0.054 | 0.0255 ± 0.012 | 0.0385 ± 0.0035
2 | lMphg:CCL2/MCP-1 | -0.0025 ± 0.011 | 0 ± 0.044 | 0.015 ± 0.027 | -0.0235 ± 0.011 | -0.002 ± 0.016 | 0.0085 ± 0.054 | -0.007 ± 0.011 | -0.017 ± 0.021 | -0.0145 ± 0.0035 | -0.007 ± 0.0028 | -0.016 ± 0.0028 | -0.078 ± 0.061 | 0.001 ± 0.0014 | -0.021 ± 0.0099 | 0.0145 ± 0.032 | -0.003 ± 0.025 | 0.0095 ± 0.039 | 0.022 ± 0.042 | -0.0005 ± 0.018 | 0.007 ± 0.018 | 0.001 ± 0.031
3 | lMphg:SRB-Mphg | -0.0015 ± 0.016 | 0.0205 ± 0.025 | 0.034 ± 0.017 | 0.0355 ± 0.011 | 0.005 ± 0.017 | -0.003 ± 0.028 | 0.0015 ± 0.0021 | 0.006 ± 0.0014 | 0.0015 ± 0.033 | -0.032 | -0.017 ± 0.014 | 0.0035 ± 0.012 | 0.009 ± 0.021 | 0.002 ± 0.0057 | -0.006 ± 0.0028 | 0.0025 ± 0.029 | 0.0435 ± 0.013 | 0.061 ± 0.048 | 0.0355 ± 0.021 | 0.012 ± 0.018 | -0.008 ± 0.0042
4 | lMphg:SRB | -0.015 ± 0.027 | -0.0085 ± 0.0064 | -0.0055 ± 0.0064 | -0.003 ± 0.0028 | -0.0075 ± 0.0078 | -0.0105 ± 0.015 | 0.002 ± 0.0099 | -0.0065 ± 0.016 | -0.021 ± 0.0085 | -0.0145 ± 0.013 | -0.0205 ± 0.0021 | -0.0205 ± 0.028 | -0.004 ± 0.013 | -0.0055 ± 0.00071 | -0.0025 ± 0.0035 | 0.0035 ± 0.0078 | -0.0065 ± 0.00071 | -0.008 ± 0.0042 | 0.008 ± 0.0057 | -0.002 ± 0.0028 | -0.0085 ± 0.0021
5 | KF3CT:CCL2/MCP-1 | 0.0105 ± 0.012 | -0.0095 ± 0.022 | 0.0125 ± 0.052 | 0.005 ± 0.028 | 0.0025 ± 0.012 | 0.0015 ± 0.04 | -0.006 ± 0.061 | -0.02 ± 0.089 | 0.0135 ± 0.035 | -0.0055 ± 0.036 | -0.015 ± 0.014 | -0.028 ± 0.052 | 0.015 ± 0.011 | 0.0225 ± 0.032 | -0.015 ± 0.0014 | -0.0185 ± 0.047 | 0.037 ± 0.023 | 0.02 ± 0.055 | -0.0075 ± 0.029 | 0.0045 ± 0.019 | -0.012 ± 0.0042
6 | HDF3CGF:MMP-1 | -0.023 ± 0.02 | 0.0025 ± 0.0092 | -0.004 ± 0.016 | 0.003 ± 0.0057 | -0.007 ± 0.018 | -0.0045 ± 0.042 | 0.009 ± 0.0057 | 0.114 ± 0.011 | -0.023 ± 0.014 | -0.015 ± 0.0014 | -0.013 ± 0.017 | -0.001 ± 0.0099 | -0.013 ± 0.0085 | 0.0065 ± 0.0035 | -0.0075 ± 0.029 | -0.034 ± 0.017 | 0.009 ± 0.013 | 0.0005 ± 0.015 | 0.01 ± 0.031 | -0.002 ± 0.028 | -0.0115 ± 0.015
